# Results from article PMC10617613.
# Protein sequences, listed by entry. Tags and fused reporters are not part of them.
# UniProt P08670: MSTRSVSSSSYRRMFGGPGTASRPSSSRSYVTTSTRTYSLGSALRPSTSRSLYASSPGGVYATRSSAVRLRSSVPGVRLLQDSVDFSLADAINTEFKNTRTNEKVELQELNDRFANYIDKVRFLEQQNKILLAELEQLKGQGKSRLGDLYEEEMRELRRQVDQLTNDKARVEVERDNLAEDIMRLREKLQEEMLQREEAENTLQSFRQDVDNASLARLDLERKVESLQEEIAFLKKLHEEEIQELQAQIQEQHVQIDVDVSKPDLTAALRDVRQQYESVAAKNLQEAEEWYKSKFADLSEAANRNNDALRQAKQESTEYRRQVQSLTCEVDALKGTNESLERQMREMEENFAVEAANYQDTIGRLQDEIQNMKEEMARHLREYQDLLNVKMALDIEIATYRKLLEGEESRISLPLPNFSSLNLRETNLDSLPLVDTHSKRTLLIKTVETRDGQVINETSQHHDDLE
# No constants are given. Whether binding was seen depends on the method and setting. Binding seen in cells or lysates may run through a third protein. A yes stands for co-enrichment or nearness to the bait. Other partners may have been found. Where a sequence is shown, tags or fusion partners need not be part of it.
# T1: GORAB fused to the biotin ligase BirA (UniProt Q5T7V8)
# T1 sequence: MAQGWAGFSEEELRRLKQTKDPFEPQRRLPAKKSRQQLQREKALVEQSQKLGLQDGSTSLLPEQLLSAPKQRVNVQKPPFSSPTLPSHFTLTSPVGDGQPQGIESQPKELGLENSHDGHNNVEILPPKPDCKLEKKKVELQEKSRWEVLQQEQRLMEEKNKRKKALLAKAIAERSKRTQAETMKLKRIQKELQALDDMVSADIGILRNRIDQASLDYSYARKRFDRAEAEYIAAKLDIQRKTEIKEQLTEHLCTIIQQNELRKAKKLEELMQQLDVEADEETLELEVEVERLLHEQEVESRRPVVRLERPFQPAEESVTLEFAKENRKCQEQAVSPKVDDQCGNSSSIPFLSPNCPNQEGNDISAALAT
# Target: T1, GORAB fused to the biotin ligase BirA
# Assay: proximity labelling; BioID: GORAB–BirA stably expressed in HeLaM cells or human skin fibroblasts, 50 µM biotin for 24 h; biotinylated proteins collected on streptavidin-Dynabeads, on-bead tryptic digest, LC-MS/MS
row,Molecule,binding
1,Vimentin (from UniProt P08670 1-466),binds
2,"COPI subunit γ2-COP (protein, UniProt Q9UBF2 1-871) MIKKFDKKDEESGSGSNPFQHLEKSAVLQEARIFNETPINPRRCLHILTKILYLLNQGEHFGTTEATEAFFAMTRLFQSNDQTLRRMCYLTIKEMATISEDVIIVTSSLTKDMTGKEDVYRGPAIRALCRITDGTMLQAIERYMKQAIVDKVSSVSSSALVSSLHMMKISYDVVKRWINEAQEAASSDNIMVQYHALGVLYHLRKNDRLAVSKMLNKFTKSGLKSQFAYCMLIRIASRLLKETEDGHESPLFDFIESCLRNKHEMVIYEAASAIIHLPNCTARELAPAVSVLQLFCSSPKPALRYAAVRTLNKVAMKHPSAVTACNLDLENLITDSNRSIATLAITTLLKTGSESSVDRLMKQISSFVSEISDEFKVVVVQAISALCQKYPRKHSVMMTFLSNMLRDDGGFEYKRAIVDCIISIVEENPESKEAGLAHLCEFIEDCEHTVLATKILHLLGKEGPRTPVPSKYIRFIFNRVVLENEAVRAAAVSALAKFGAQNESLLPSILVLLQRCMMDTDDEVRDRATFYLNVLQQRQMALNATYIFNGLTVSVPGMEKALHQYTLEPSEKPFDMKSIPLAMAPVFEQKAEITLVATKPEKLAPSRQDIFQEQLAAIPEFLNIGPLFKSSEPVQLTEAETEYFVRCIKHMFTNHIVFQFDCTNTLNDQLLEKVTVQMEPSDSYEVLSCIPAPSLPYNQPGICYTLVRLPDDDPTAVAGSFSCTMKFTVRDCDPNTGVPDEDGYDDEYVLEDLEVTVSDHIQKVLKPNFAAAWEEVGDTFEKEETFALSSTKTLEEAVNNIITFLGMQPCERSDKVPENKNSHSLYLAGIFRGGYDLLVRSRLALADGVTMQVTVRSKERTPVDVILASVG",binds
3,"Scyl1 (protein, UniProt Q96KG9 1-808) MWFFARDPVRDFPFELIPEPPEGGLPGPWALHRGRKKATGSPVSIFVYDVKPGAEEQTQVAKAAFKRFKTLRHPNILAYIDGLETEKCLHVVTEAVTPLGIYLKARVEAGGLKELEISWGLHQIVKALSFLVNDCSLIHNNVCMAAVFVDRAGEWKLGGLDYMYSAQGNGGGPPRKGIPELEQYDPPELADSSGRVVREKWSADMWRLGCLIWEVFNGPLPRAAALRNPGKIPKTLVPHYCELVGANPKVRPNPARFLQNCRAPGGFMSNRFVETNLFLEEIQIKEPAEKQKFFQELSKSLDAFPEDFCRHKVLPQLLTAFEFGNAGAVVLTPLFKVGKFLSAEEYQQKIIPVVVKMFSSTDRAMRIRLLQQMEQFIQYLDEPTVNTQIFPHVVHGFLDTNPAIREQTVKSMLLLAPKLNEANLNVELMKHFARLQAKDEQGPIRCNTTVCLGKIGSYLSASTRHRVLTSAFSRATRDPFAPSRVAGVLGFAATHNLYSMNDCAQKILPVLCGLTVDPEKSVRDQAFKAIRSFLSKLESVSEDPTQLEEVEKDVHAASSPGMGGAAASWAGWAVTGVSSLTSKLIRSHPTTAPTETNIPQRPTPEGVPAPAPTPVPATPTTSGHWETQEEDKDTAEDSSTADRWDDEDWGSLEQEAESVLAQQDDWSTGGQVSRASQVSNSDHKSSKSPESDWSSWEAEGSWEQGWQEPSSQEPPPDGTRLASEYNWGGPESSDKGDPFATLSARPSTQPRPDSWGEDNWEGLETDSRQVKAELARKKREERRREMEAKRAERKVAKGPMKLGARKLD",binds
